In article PMC10192343, “Structural and functional analyses of the echinomycin resistance conferring protein Ecm16 from Streptomyces lasalocidi” (Scientific Reports, 2023):

How the values were obtained:
[1] = biological target: Ecm16-ΔID (Streptomyces lasalocidi) (UniProt Q0X0A9); assay: EMSA; details: 100-300 nM protein, EMSA: same buffer plus 0.1 mg/ml BSA, 50 nM DNA, echinomycin:DNA 1.1:1, 15 min at room temperature, 6% native gel at 4 °C, recombinant protein
[2] = biological target: T1, Ecm16 (Streptomyces lasalocidi) (UniProt Q0X0A9); assay: EMSA; details: no echinomycin, 100-300 nM protein; EMSA: same buffer plus 0.1 mg/ml BSA, 50 nM DNA, echinomycin:DNA 1.1:1, 15 min at room temperature, 6% native gel at 4 °C; recombinant protein
T1 sequence (looked up, limits assumed): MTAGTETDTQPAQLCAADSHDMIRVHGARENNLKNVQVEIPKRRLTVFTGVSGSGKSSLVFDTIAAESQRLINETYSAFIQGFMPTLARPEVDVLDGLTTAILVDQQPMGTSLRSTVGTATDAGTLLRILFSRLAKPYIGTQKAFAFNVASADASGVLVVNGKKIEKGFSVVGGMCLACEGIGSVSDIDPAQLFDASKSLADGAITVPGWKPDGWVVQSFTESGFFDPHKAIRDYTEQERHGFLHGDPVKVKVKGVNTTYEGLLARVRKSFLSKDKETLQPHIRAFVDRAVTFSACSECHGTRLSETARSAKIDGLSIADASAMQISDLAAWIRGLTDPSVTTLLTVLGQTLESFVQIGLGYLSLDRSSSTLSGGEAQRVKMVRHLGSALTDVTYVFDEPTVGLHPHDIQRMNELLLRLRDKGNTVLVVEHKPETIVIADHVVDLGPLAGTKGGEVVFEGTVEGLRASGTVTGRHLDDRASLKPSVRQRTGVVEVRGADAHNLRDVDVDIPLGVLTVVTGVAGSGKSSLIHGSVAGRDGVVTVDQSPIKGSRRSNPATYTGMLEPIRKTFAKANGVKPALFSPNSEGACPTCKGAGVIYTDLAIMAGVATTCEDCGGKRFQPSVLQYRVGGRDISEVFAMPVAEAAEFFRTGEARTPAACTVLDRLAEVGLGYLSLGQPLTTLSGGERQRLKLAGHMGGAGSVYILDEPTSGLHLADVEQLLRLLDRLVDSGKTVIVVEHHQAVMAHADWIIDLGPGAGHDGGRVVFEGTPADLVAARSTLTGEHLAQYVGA

[3] = biological target: Ecm16-ΔID (Streptomyces lasalocidi) (UniProt Q0X0A9); assay: fluorescence polarization; details: undetectable, up to 512 nM protein, FP: 50 mM HEPES pH 7.5, 50 mM NaCl, 50 nM DNA, 4-512 nM protein, temperature not stated, label: 5'-FAM on both strands

| Sequence | binding result ([1]; echinomycin-bound DNA) | binding result ([1]; no echinomycin) | binding result [2] | binding result ([3]; echinomycin-bound DNA, recombinant protein) | binding result ([3]; no echinomycin, recombinant …) |
| --- | --- | --- | --- | --- | --- |
| AGTGATCAGTGGTTACGTAACCACTGATCACT (double strand) [32-bp DNA] | no binding | no binding | binds more weakly | – | – |
| AGTGATCAGTGGTTACGTAACCACTGATCACT (double strand) [FAM 32-bp DNA] | – | – | – | no binding | no binding |

The exact form of at least one protein or probe is not confirmed. For some assays here: A negative result means that nothing was seen under these conditions. For some assays here: A weaker result is weaker than the reference pair of the same experiment. For some assays here: Tags and fusion partners may be left off the protein sequences shown.
